Source: PMC8324795
Where two headings read alike, the source gives them in different places. Results are given in words; binding and its absence hold for the method and conditions named. Binding seen in cells or lysates may run through a third protein. Some results given as binding are weak or reduced against the parent protein; the word gives no strength. For some assays here: Tags and fused reporters may be left off the sequences shown.

Sequences of proteins named here, by UniProt entry; tags and fusion partners are left off.
UniProt O75396: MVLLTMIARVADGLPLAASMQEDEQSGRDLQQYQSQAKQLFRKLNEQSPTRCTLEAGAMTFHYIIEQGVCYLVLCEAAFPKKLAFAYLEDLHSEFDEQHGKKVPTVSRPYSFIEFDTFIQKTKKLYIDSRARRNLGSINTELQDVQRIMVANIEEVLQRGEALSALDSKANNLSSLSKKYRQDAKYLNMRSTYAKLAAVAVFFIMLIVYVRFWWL
UniProt O00214: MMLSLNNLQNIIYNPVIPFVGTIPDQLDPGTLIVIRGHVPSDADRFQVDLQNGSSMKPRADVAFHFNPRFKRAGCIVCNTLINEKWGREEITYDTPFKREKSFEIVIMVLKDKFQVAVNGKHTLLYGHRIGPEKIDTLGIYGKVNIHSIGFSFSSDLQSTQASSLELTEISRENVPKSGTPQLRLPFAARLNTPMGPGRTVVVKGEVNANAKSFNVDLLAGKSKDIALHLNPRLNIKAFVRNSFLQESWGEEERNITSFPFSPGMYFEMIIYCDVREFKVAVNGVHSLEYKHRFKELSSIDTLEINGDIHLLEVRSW
UniProt P61081: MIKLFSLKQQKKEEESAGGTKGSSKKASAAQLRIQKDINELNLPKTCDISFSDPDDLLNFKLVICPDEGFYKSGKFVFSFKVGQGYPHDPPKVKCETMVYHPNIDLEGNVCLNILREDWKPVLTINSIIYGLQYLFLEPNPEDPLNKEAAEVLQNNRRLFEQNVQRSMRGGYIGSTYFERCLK

Key:
[1] = molecular target: T1, FLAG-tagged FKBP51 (FK506-binding protein 51), expressed in SH-SY5Y cells (UniProt Q13451); experiment: co-IP; SH-SY5Y cells 3 days after transfection; lysate in 20 mM Tris-HCl pH 8.0, 100 mM NaCl, 1 mM EDTA, 0.5% Igepal; FLAG or GFP antibody overnight at 4 °C, protein G Dynabeads; western blot; some panels with 100 nM dexamethasone or vehicle for 4 h; TRIM16-FLAG IP in WT and FKBP5 KO cells
T1 sequence: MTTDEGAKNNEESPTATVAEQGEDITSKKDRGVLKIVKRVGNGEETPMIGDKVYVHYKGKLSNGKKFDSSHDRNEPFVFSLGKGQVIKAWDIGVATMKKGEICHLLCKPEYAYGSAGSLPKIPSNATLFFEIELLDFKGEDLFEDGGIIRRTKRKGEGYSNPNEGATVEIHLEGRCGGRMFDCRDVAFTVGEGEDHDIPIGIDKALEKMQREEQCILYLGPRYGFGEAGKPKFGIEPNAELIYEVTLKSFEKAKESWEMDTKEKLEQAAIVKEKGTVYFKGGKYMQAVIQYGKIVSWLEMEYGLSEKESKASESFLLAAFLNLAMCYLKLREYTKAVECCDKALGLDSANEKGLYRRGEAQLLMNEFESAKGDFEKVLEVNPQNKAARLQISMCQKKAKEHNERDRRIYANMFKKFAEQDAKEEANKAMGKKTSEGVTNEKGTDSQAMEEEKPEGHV

GFP-tagged SEC22B [2] = molecular target: GFP-tagged SEC22B (UniProt O75396); experiment: co-IP; FKBP5 KO SH-SY5Y cells, GFP-tagged SEC22B IP (GFP antibody, protein G Dynabeads), 100 nM dexamethasone or vehicle for 4 h; western blot
[3] = molecular target: T1, FLAG-tagged FKBP51 (FK506-binding protein 51), expressed in SH-SY5Y cells; experiment: co-IP; SH-SY5Y cells 3 days after transfection; lysate in 20 mM Tris-HCl pH 8.0, 100 mM NaCl, 1 mM EDTA, 0.5% Igepal; FLAG or GFP antibody overnight at 4 °C, protein G Dynabeads; western blot; some panels with 100 nM dexamethasone or vehicle for 4 h; TRIM16-FLAG IP in WT and FKBP5 KO cells; remark: listed apart in the source
GFP-tagged SEC22B [4] = molecular target: GFP-tagged SEC22B (UniProt O75396); experiment: as above

Q: For “galectin-8 (GAL8) in SH-SY5Y lysate (from UniProt O00214 1-317)”, which binding [1] is on record?
A: binds

Q: Which binding [1] does the source give for “UBC12 in SH-SY5Y lysate (from UniProt P61081 1-183)” here?
A: binds

Q: “SEC22B in SH-SY5Y lysate (detected by blot in FLAG immunoprecipitates) (from UniProt O75396 1-215)” was tested. Which binding [1] did it give?
A: binds

B1: synaptosomal-associated protein SNAP23 in SH-SY5Y lysate (protein, UniProt O00161 1-211)
chain: MDNLSSEEIQQRAHQITDESLESTRRILGLAIESQDAGIKTITMLDEQKEQLNRIEEGLDQINKDMRETEKTLTELNKCCGLCVCPCNRTKNFESGKAYKTTWGDGGENSPCNVVSKQPGPVTNGQLQQPTTGAASGGYIKRITNDAREDEMEENLTQVGSILGNLKDMALNIGNEIDAQNPQIKRITDKADTNRDRIDIANARAKKLIDS
Q: Which results are given for B1?
A: binding (GFP-tagged SEC22B [2]): binds weakly; binding [3]: binds

B2: syntaxin 3 (STX3) in SH-SY5Y lysate (protein, UniProt Q13277 1-289)
chain: MKDRLEQLKAKQLTQDDDTDAVEIAIDNTAFMDEFFSEIEETRLNIDKISEHVEEAKKLYSIILSAPIPEPKTKDDLEQLTTEIKKRANNVRNKLKSMEKHIEEDEVRSSADLRIRKSQHSVLSRKFVEVMTKYNEAQVDFRERSKGRIQRQLEITGKKTTDEELEEMLESGNPAIFTSGIIDSQISKQALSEIEGRHKDIVRLESSIKELHDMFMDIAMLVENQGEMLDNIELNVMHTVDHVEKARDETKKAVKYQSQARKKLIIIIVLVVVLLGILALIIGLSVGLN
Q: With B2 as the molecule, how does the binding (GFP-tagged SEC22B [2]) read?
A: binds weakly

Q: What about the binding [3] of the same molecule?
A: binds

B3: FKBP51 in SH-SY5Y lysate (detected by blot in GFP-SEC22B and TRIM16 immunoprecipitates) (protein, UniProt Q13451 1-457)
chain: MTTDEGAKNNEESPTATVAEQGEDITSKKDRGVLKIVKRVGNGEETPMIGDKVYVHYKGKLSNGKKFDSSHDRNEPFVFSLGKGQVIKAWDIGVATMKKGEICHLLCKPEYAYGSAGSLPKIPSNATLFFEIELLDFKGEDLFEDGGIIRRTKRKGEGYSNPNEGATVEIHLEGRCGGRMFDCRDVAFTVGEGEDHDIPIGIDKALEKMQREEQCILYLGPRYGFGEAGKPKFGIEPNAELIYEVTLKSFEKAKESWEMDTKEKLEQAAIVKEKGTVYFKGGKYMQAVIQYGKIVSWLEMEYGLSEKESKASESFLLAAFLNLAMCYLKLREYTKAVECCDKALGLDSANEKGLYRRGEAQLLMNEFESAKGDFEKVLEVNPQNKAARLQISMCQKKAKEHNERDRRIYANMFKKFAEQDAKEEANKAMGKKTSEGVTNEKGTDSQAMEEEKPEGHV
Q: B3 was tested. Which binding (GFP-tagged SEC22B [4]) did it give?
A: binds
